# Data reported in the supplement of paper PMC6289059.
# Values joined by “and” are separate entries in the source; they are usually repeats but may differ in a detail not shown here. Equal values may be shown once. The list shows a part of the results. Many values rest on one well or one pass, so single values are uncertain.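 The assay uses human stem cell-derived hepatocyte-like cells whose DGUOK gene was disrupted by CRISPR, modeling liver mtDNA depletion syndrome. ATP signals were scored within each plate, and any drug with a score of at least 3 was called a primary hit.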
# Tested on: DGUOK Δ14/Δ5 iPSC-derived hepatocyte-like cells (SV20)
# Test: ATP level (CellTiter-Glo luminescence) Z score relative to plate distribution, under 2-DG glycolysis block; higher = more cellular ATP (rescue of mitochondrial ATP production)
# Details: 5 µM; treatment time: day 15 to day 20 of differentiation (5 days); 2-deoxy-D-glucose: 20 mM for 24 h before assay
row,SMILES,ATP level
1,N[C@@H](COCc1ccccc1)C(=O)O,inactive: 0.999
2,CC(c1cc2ccccc2s1)N(O)C(N)=O (stereo unspecified),inactive: 1.89
3,C[C@@H]1C(=O)O[C@H]2C[C@@]34[C@H]5C[C@@H](C(C)(C)C)[C@]36[C@@H](OC(=O)[C@@H]6O)O[C@@]4(C(=O)O5)[C@]21O,inactive: 1.03
4,"CC1=CC(=O)CC(C)(C)C1(O)/C=C/C(C)=C\C(=O)O (mixture of isomers) [ABSCISIC ACID (cis,trans; +/-)]",inactive: -0.334
5,NC(=O)c1ncn([C@@H]2O[C@H](CO)[C@@H](O)[C@H]2O)c1N,inactive: -0.159
6,CCC(=O)O[C@H]1[C@H](O[C@@H]2[C@@H](C)[C@H](O[C@H]3C[C@@](C)(OC)[C@@H](O)[C@H](C)O3)[C@@H](C)C(=O)O[C@H](CC)[C@@](C)(O)[C@H](O)[C@@H](C)C(=O)[C@H](C)C[C@@]2(C)O)O[C@H](C)C[C@@H]1N(C)C,inactive: -0.402
7,Nc1ncnc2c1ncn2[C@@H]1O[C@H](COP(=O)(O)O)[C@@H](O)[C@H]1O,inactive: 1.54
8,S=C=Nc1ccc(N=C=S)cc1,inactive: 0.643
9,CCCCC(=O)O[C@]1(C(=O)CO)[C@@H](C)C[C@H]2[C@@H]3CCC4=CC(=O)C=C[C@]4(C)[C@@]3(F)[C@@H](O)C[C@@]21C,inactive: 1.43
10,CC(=O)OCC(=O)[C@@]1(O)CC[C@H]2[C@@H]3CCC4=CC(=O)CC[C@]4(C)[C@H]3C(=O)C[C@@]21C,inactive: 0.186
11,COc1cc(C(=O)N2CCOCC2)cc(OC)c1OC,inactive: 2.5
12,COc1cc(O)c(C(C)=O)c(OC)c1,inactive: 0.119
13,CN(C)CCCOc1nn(Cc2ccccc2)c2ccccc12,inactive: -11.5
14,CC(C)(O)CC[C@@H](O)[C@](C)(O)[C@H]1CC[C@@]2(O)C3=CC(=O)[C@@H]4C[C@@H](O)[C@@H](O)C[C@]4(C)[C@H]3CC[C@]12C,inactive: 2.18
15,Nc1ccc(S(=O)(=O)Nc2ccc(Cl)nn2)cc1,inactive: -0.177
16,COC1=C(O)C(=O)c2c(cc3oc(C(C)=O)c(O)c3c2O)C1=O,active: 3.01
17,Oc1ccc(O)cc1,inactive: -0.027
18,CC1(O)CCOC(=O)C1 (stereo unspecified),inactive: 2.27
19,CC1CCC(NC(=O)N(CCCl)N=O)CC1 (stereo unspecified),inactive: -0.866
20,CC1=C2C(O)C(=O)OC3CC4C(C)(C)C(=O)C=C[C@]4(C)C(CC1)[C@]23C (stereo partly specified),inactive: 2.36
21,CC(=O)OCC(=O)[C@@]1(O)[C@@H](C)C[C@H]2[C@@H]3CCC4=CC(=O)C=C[C@]4(C)[C@@]3(F)[C@@H](O)C[C@@]21C,inactive: 1.81

row,SMILES,ATP level
1,CC(=O)Oc1ccc2c(c1OC(C)=O)OCC1(O)Cc3c(cc(OC(C)=O)c(OC(C)=O)c3OC(C)=O)C21 (stereo unspecified),inactive: 0.64
2,C[C@@H]1C[C@H]2[C@@H]3C[C@H](F)C4=CC(=O)C=C[C@]4(C)[C@@]3(F)[C@@H](O)C[C@]2(C)[C@@]1(O)C(=O)CO,active: 3.39
3,O=C(NC[C@H]1CN(c2ccc(N3CCOCC3=O)cc2)C(=O)O1)c1ccc(Cl)s1,inactive: -3.24
4,O=C(O)Cc1ccc(-c2ccccc2)cc1,inactive: 2.02
5,O=C(O)c1cn(-c2ccc(F)cc2)c2cc(N3CCNCC3)c(F)cc2c1=O,inactive: 0.15
6,CC[C@H](/C=C/[C@@H](C)[C@H]1CC[C@H]2[C@@H]3CC=C4C[C@@H](O)CC[C@]4(C)[C@H]3CC[C@]12C)C(C)C,inactive: 1.72
7,CCCCCCCCCCCCCCCCCCOCC(O)CO (stereo unspecified),inactive: 1.76
8,C[N+]1(C)CCC(OC(=O)C(O)(c2ccccc2)C2CCCC2)C1 (stereo unspecified),inactive: 1.67
9,CC(=O)ON(CCN(OC(C)=O)OC(C)=O)OC(C)=O,inactive: 1.63
10,CC1c2cccc(O)c2C(O)=C2C(=O)C3(O)C(O)=C(C(N)=O)C(=O)C(N(C)C)C3C(O)C21 (stereo unspecified),inactive: -4.13
11,CCCCCc1c2c(cc(O)c1C(=O)O)OC(=O)c1c(cc(OC)cc1C(=O)CCCC)O2,inactive: 0.851
12,Clc1ccc(CCC(Cn2ccnc2)Sc2c(Cl)cccc2Cl)cc1 (stereo unspecified),inactive: 2.65
13,N#Cc1ccc(C(c2ccc(C#N)cc2)n2cncn2)cc1,inactive: 0.942
14,COC1=C[C@@H](C)[C@@H]2C[C@H]3OC(=O)C[C@H]4C(C)=C(OC)C(=O)[C@H]([C@@]2(C)C1=O)[C@@]34C,inactive: -1.87
15,NCc1ccccc1CC(=O)N[C@@H]1C(=O)N2C(C(=O)O)=C(CSc3nnnn3CC(=O)O)CS[C@H]12,inactive: 0.487
16,N=C(NCCCCCCNC(=N)NC(=N)Nc1ccc(Cl)cc1)NC(=N)Nc1ccc(Cl)cc1,inactive: -14.7
17,CN1CCN(C2=Nc3ccccc3Oc3ccc(Cl)cc32)CC1,inactive: -2.31
18,CC(C)CC(N)=O,inactive: 1.72
19,Oc1ccc2ccccc2c1 [beta-NAPHTHOL],inactive: -0.207
20,CC(=O)Oc1ccccc1C(=O)Nc1ncc([N+](=O)[O-])s1,inactive: -4.14
21,Cc1[nH]ccc2c1[nH]c1cc(=O)ccc12,inactive: -0.00231 and inactive: -3.13

# Part of the list above in order of length of the SMILES, rising.
row,SMILES,ATP level
19,Oc1ccc2ccccc2c1 [beta-NAPHTHOL],inactive: -0.207
4,O=C(O)Cc1ccc(-c2ccccc2)cc1,inactive: 2.02
12,Clc1ccc(CCC(Cn2ccnc2)Sc2c(Cl)cccc2Cl)cc1 (stereo unspecified),inactive: 2.65
20,CC(=O)Oc1ccccc1C(=O)Nc1ncc([N+](=O)[O-])s1,inactive: -4.14
15,NCc1ccccc1CC(=O)N[C@@H]1C(=O)N2C(C(=O)O)=C(CSc3nnnn3CC(=O)O)CS[C@H]12,inactive: 0.487

# Look-ups from the results shown.
# ATP level with CC1c2cccc(O)c2C(O)=C2C(=O)C3(O)C(O)=C(C(N)=O)C(=O)C(N(C)C)C3C(O)C21 (stereo unspecified) reads inactive: -4.13
# ATP level with CC(=O)Oc1ccc2c(c1OC(C)=O)OCC1(O)Cc3c(cc(OC(C)=O)c(OC(C)=O)c3OC(C)=O)C21 (stereo unspecified) reads inactive: 0.64

# Next compounds.

row,SMILES,ATP level
1,CCN(CC)CCOC(=O)C1(C2CCCCC2)CCCCC1,inactive: -0.403
2,CCCCOCCOCCOCc1cc2c(cc1CCC)OCO2,inactive: -1.49
3,O=c1cc(-c2ccccc2)oc2c(O)c(O)ccc12,inactive: -1.62
4,CCCCC(O)c1ccccc1 (stereo unspecified),active: 3.53
5,CC(N/C(=N\C#N)Nc1ccncc1)C(C)(C)C (stereo unspecified),inactive: 0.573
6,CC1(C)OC(=O)C(OCC2CC2)=C1c1ccc(S(C)(=O)=O)cc1,inactive: 0.365
7,CC1=C(CCC(=O)O)c2cc3nc(cc4[nH]c(cc5[nH]c(cc1n2)c(C)c5C(C)O)c(C)c4C(C)O)C(C)=C3CCC(=O)O (stereo unspecified),inactive: -5.09
8,COc1ccc([C@@H]2CC(=O)c3c(O)cc(O)cc3O2)cc1O,inactive: 0.262
9,COc1cc(C(=O)OCCCN2CCCN(CCCOC(=O)c3cc(OC)c(OC)c(OC)c3)CC2)cc(OC)c1OC,inactive: -2.38
10,CC[N+](C)(CC)CCOC(=O)C(O)(c1ccccc1)C1CCCCC1 (stereo unspecified),inactive: -0.839
11,CO[C@H]1C[C@H](O[C@H]2[C@H](C)O[C@@H](O[C@@H]3/C(C)=C/C[C@@H]4C[C@@H](C[C@]5(C=C[C@H](C)[C@@H](C6CCCCC6)O5)O4)OC(=O)[C@@H]4C=C(C)[C@@H](O)[C@H]5OC/C(=C\C=C\[C@@H]3C)[C@]54O)C[C@@H]2OC)O[C@@H](C)[C@@H]1O,inactive: -4.9
12,CCCCCCCCCCCCCCCC(=O)OCC(O)CO (stereo unspecified),inactive: 0.712
13,O=S(=O)(O)c1cc(N=C=S)ccc1/C=C/c1ccc(N=C=S)cc1S(=O)(=O)O,inactive: -0.556
14,NCCc1c[nH]cn1,inactive: 1.54
15,CCCOc1cc(N)ccc1C(=O)OCCN(CC)CC,inactive: -0.074
16,OC(Cn1cncn1)(Cn1cncn1)c1ccc(F)cc1F,inactive: 0.0748
17,Nc1[nH]cnc2ncnc1-2,inactive: 1.71
18,CC(=O)[C@@]1(O)CC[C@H]2[C@@H]3C=C(Cl)C4=CC(=O)[C@@H]5C[C@@H]5[C@]4(C)[C@H]3CC[C@@]21C,inactive: -1.59
19,CC[N+](C)(C)c1cccc(O)c1,inactive: -0.607
20,CC(C)CCC[C@@H](C)[C@H]1CC[C@H]2[C@@H]3CC=C4C[C@@H](OC(=O)CCC(=O)O)CC[C@]4(C)[C@H]3CC[C@]12C,inactive: -1.3
21,COc1c(-c2coc3cc4c(cc3c2=O)CC(O)C(C)(C)O4)ccc2c1C=CC(C)(C)O2 (stereo unspecified),inactive: -10.8

row,SMILES,ATP level
1,Cc1cn[nH]c1,inactive: 0.513 and inactive: 0.999
2,CC(=O)OCC(=O)[C@@]1(O)CC[C@H]2[C@@H]3CCC4=CC(=O)C=C[C@]4(C)[C@@]3(Cl)[C@@H](Cl)C[C@@]21C,inactive: 0.477
3,FC(F)(F)C(Cl)Br (stereo unspecified),inactive: 1.47
4,O=C(O)CN1C(=O)c2cccc3cccc(c23)C1=O,inactive: 1.68
5,Cc1ccc(C(=O)c2ccc(CC(=O)O)n2C)cc1,inactive: -0.293
6,CCCCN(CCCC)CCCOC(=O)c1ccc(N)cc1,inactive: -0.325
7,CC12CCC3C(CC3(C)C)C(C)(CCC1=O)O2 (stereo unspecified),inactive: -1.85
8,CC(=O)OCC(=O)[C@@]1(O)CC[C@H]2[C@@H]3CCC4=CC(=O)CC[C@]4(C)[C@@]3(F)[C@@H](O)C[C@@]21C,inactive: 1.23
9,CC(=O)O[C@@H]1C[C@H]2C(C)(C)C(=O)CC[C@]2(C)[C@H]2CC[C@@]3(C)[C@H](c4ccoc4)OC(=O)[C@H]4O[C@]43[C@@]21C,inactive: -1.32
10,O=C(O)CCCCCCCC(=O)O,inactive: 0.62
11,NS(=O)(=O)c1cc(C2(O)NC(=O)c3ccccc32)ccc1Cl (stereo unspecified),inactive: -2.44
12,CCCCCCCCCCCCCCCC(=O)OC/C=C(C)/C=C/C=C(C)/C=C/C1=C(C)CCCC1(C)C,inactive: -9.64
13,C=CC(N)CCC(=O)O (stereo unspecified),inactive: 2.73
14,CC(C)c1c(C(=O)Nc2ccccc2)c(-c2ccccc2)c(-c2ccc(F)cc2)n1CC[C@@H](O)C[C@@H](O)CC(=O)O,inactive: 1.28
15,Cc1ncc(C[n+]2csc(CCO)c2C)c(N)n1,inactive: 0.766
16,CC(=O)OCC(=O)[C@@]1(O)CC[C@H]2[C@@H]3CCC4=CC(=O)CC[C@]4(C)[C@H]3[C@@H](O)C[C@@]21C,inactive: 2.34
17,CCN[C@H]1CN(CCCOC)S(=O)(=O)c2sc(S(N)(=O)=O)cc21,inactive: 1.42
18,CC(=O)S[C@@H]1CC2=CC(=O)CC[C@]2(C)[C@H]2CC[C@@]3(C)[C@@H](CC[C@@]34CCC(=O)O4)[C@H]12,inactive: 0.412
